The structures given here were assigned with low confidence; some may be wrong.
Target: Keap1 Kelch domain protein (Homo sapiens (Human), UniProt Q14145)
Assay: Fluorescence polarization (FP) assay
Type: binding
Conditions: I-d compounds

Sequences of proteins named here, by UniProt entry; tags and fusion partners are left off. Residues count along the entry.
UniProt Q14145, 321-609 limits assumed: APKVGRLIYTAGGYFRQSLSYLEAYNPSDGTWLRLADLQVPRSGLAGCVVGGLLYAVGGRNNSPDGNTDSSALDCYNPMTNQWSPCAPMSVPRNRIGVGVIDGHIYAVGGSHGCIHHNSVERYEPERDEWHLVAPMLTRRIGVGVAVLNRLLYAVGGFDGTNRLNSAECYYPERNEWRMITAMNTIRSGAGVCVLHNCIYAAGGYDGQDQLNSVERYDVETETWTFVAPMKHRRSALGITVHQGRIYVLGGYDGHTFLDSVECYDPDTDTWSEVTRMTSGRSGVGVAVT

O=C(O)CN(c1ccc(N(CC(=O)O)S(=O)(=O)c2cc3c(cc2Cl)OCCO3)c2ccccc12)S(=O)(=O)c1cc2c(cc1Cl)OCCO2 [I-d-3]
% inh. FP assay 0.5 (μM) (inhibitor 0.5 μM): 99.6%
% inh. FP assay 5 (μM) (inhibitor 5 μM): 97.4%
% inh. FP assay 50 (μM) (inhibitor 50 μM): 98.5%

Source: patent US12122742B2
